Consider 52 molecules from PubChem BioAssay AID1487 (National Center for Advancing Translational Sciences (NCATS), 2009).

The test is described as follows: qHTS Assay for Modulators of Lamin A Splicing. The note with it: HeLa LMNA splicing GFP/RFP minigene ratio, 48 h. In outline:
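Read-out is the ratio of GFP to DsRed2 object intensity, acquired by 488 nm laser-scanning cytometry on HeLa lamin A-EGFP minigene reporter cells. Compound incubation 48 hrs at 37 °C in Opti-MEM with 2% FBS; DMSO 0.5% final.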

[1] abbreviates: measured here: GFP splicing reporter channel.
Where [2] appears, read: measured here: RFP viability control channel.

Structures are written as SMILES. “And” between values parts separate entries of the source, which are not always exact repeats. Equal values may be shown once. The list shows a part of the results. The main result of the screen is listed elsewhere. These columns were measured beside it and carry no call. Most of these compounds were active or inconclusive in the main read-out, so they are no random draw. Potencies come from curve fits of mixed quality, noted in brackets.

In the case of `CC(=O)N1CCN(c2ccc([N+](=O)[O-])cc2C#N)CC1`, the AC50 runs as follows: under setting [1], 0.0316 µM [falling, full curve, poor fit]; under setting [2], 20 µM [falling, partial curve, poor fit]. As for `COc1ccc(Cl)cc1NC(=O)C/C(C)=N/NC(=O)Cc1ccccc1`, under setting [2], the AC50 was 2 µM [falling, partial curve]. As for `C/C=C/c1ccc(OCCOc2cc(C=O)ccc2OC)c(OC)c1`, the half-maximal activity concentration (AC50) is, setting by setting: under setting [1], 22.4 µM [rising, single point]; under setting [2], 28.2 µM [rising, single point]. Turning to `Oc1ccc(O)cc1`, the AC50 by setting is: under setting [1], 28.2 µM [falling, partial curve, poor fit] and 4.47 µM [falling, full curve, poor fit]; under setting [2], 2.82 µM [falling, single point] and 7.94 µM [falling, partial curve].

Regarding `CC(=O)c1cccc(NS(=O)(=O)c2ccc(N/C=C\C(=O)c3ccc(C)cc3)cc2)c1`, the half-maximal activity concentration (AC50) under setting [1] was 5.01 µM [rising, single point] and the AC50 under setting [2] is 7.08 µM [rising, partial curve, poor fit].

As to `CCOC(=O)CSc1c(-c2ccc(Cl)cc2)[nH]c2ccccc12`, the AC50 was 12.6 µM [rising, partial curve] under setting [1] and 22.4 µM [rising, single point] under setting [2]. Consider `Cc1ccc(-c2n[nH]c(=S)n2C)cc1`, for which the AC50 runs as follows: under setting [1], 8.91 µM [falling, partial curve, poor fit]; under setting [2], 12.6 µM [falling, partial curve]. Consider `O=C(CN1CCN(c2ccccc2F)CC1)Nc1ccc2c(c1)CCC2`, for which the AC50 under setting [2] is 12.6 µM [rising, single point]. For `CO/N=C(\C(=O)O)c1csc(NN=C(C)C)n1`, the half-maximal activity concentration (AC50) under setting [2] was 11.2 µM [falling, partial curve, poor fit].

As for `CCN(CC)S(=O)(=O)c1cccc(C(=O)NC(C(=O)Nc2nnc(C3CC3)s2)C(C)C)c1` (stereo unspecified), under setting [2], the AC50 was 20 µM [rising, partial curve, poor fit]. As to `CCCCn1c(=N)n(CC(O)COc2ccccc2)c2ccccc21` (stereo unspecified), the AC50 under setting [1] was 8.91 µM [rising, partial curve] and the AC50 under setting [2] is 7.08 µM [rising, partial curve, poor fit].

Regarding `Cc1ccc(Cn2cc(S(=O)(=O)c3ccc(C(C)C)cc3)c(=O)c3cc4c(cc32)OCO4)cc1`, the AC50 under setting [2] was 1.78 µM [rising, full curve, poor fit]. On the same count and under the same terms, the same measure for `N#CC1=C(N)N(c2ccccc2)C2=C(C(=O)CCC2)C1c1ccccc1` (stereo unspecified): 4.47 µM [rising, partial curve, poor fit]; for `CCOC(=O)N1CCN(c2ccc(C(=O)c3cccc(F)c3)cc2)CC1`: 31.6 µM [rising, single point].

In the case of `Cc1ccc(-c2nnc(N3CCC(C)CC3)c3ccccc23)cc1`, the AC50 under setting [2] is 14.1 µM [rising, partial curve, poor fit]. In the case of `COc1cc2nc(N3CCN(C(=O)C4CCCO4)CC3)nc(N)c2cc1OC` (stereo unspecified), the AC50 under setting [2] is 0.112 µM [falling, full curve]. Take `COc1ccc(Nc2nc(NCC3CCCO3)nc(N)c2[N+](=O)[O-])cc1` (stereo unspecified): the AC50 is 35.5 µM [falling, single point] under setting [1] and 35.5 µM [falling, single point] under setting [2]. For `CO/N=C/CC(=O)c1cnc(-c2ccc(Cl)cc2)s1`, the half-maximal activity concentration (AC50) reads like this: under setting [1], 5.01 µM [falling, full curve]; under setting [2], 6.31 µM [falling, full curve]. As for `CCN(CCCNC(=O)COc1cc(=O)n(C)c2ccccc12)c1cccc(C)c1`, the AC50 runs as follows: under setting [1], 12.6 µM [rising, single point]; under setting [2], 12.6 µM [rising, single point]. For `COc1cc(C=O)ccc1OCCCOc1ccc([N+](=O)[O-])cc1`, the AC50 reads like this: under setting [1], 8.91 µM [rising, partial curve]; under setting [2], 14.1 µM [rising, partial curve]. As to `C[C@H]1C[C@H]2[C@@H]3CCC4=CC(=O)C=C[C@]4(C)[C@@]3(Cl)[C@@H](O)C[C@]2(C)[C@@]1(O)C(=O)CO`, the AC50 under setting [1] was 1 µM [rising, full curve, poor fit]. In the case of `COc1ccccc1NS(=O)(=O)c1cc(NC(=O)CNC(=O)c2ccc(C)s2)ccc1Cl`, the AC50 under setting [2] was 15.8 µM [rising, single point]. For the molecule `COc1ccc(S(=O)(=O)N2c3cc(Cl)ccc3Oc3nc4ccccc4nc32)cc1`, under setting [2], the AC50 was 1.26 µM [rising, full curve]. Same read-out and setting: for `Cc1ccc(Cl)cc1N1CCN(C(=O)Cn2ncc3c([nH]c4ccccc43)c2=O)CC1` the value was 3.55 µM [falling, single point]. As to `CCCCOC(=O)c1ccc(NS(=O)(=O)c2cc(-c3nnnn3CC)ccc2OC)cc1`, the AC50 reads like this: under setting [1], 12.6 µM [rising, partial curve, poor fit]; under setting [2], 15.8 µM [rising, partial curve]. For `COc1cccc(-c2ccc3ncnc(Nc4ccccc4)c3c2)c1`, the AC50 is 12.6 µM [falling, partial curve] under setting [1] and 15.8 µM [falling, single point] under setting [2]. For `Cc1ccc2nc(C)c(C(=O)N/N=C/c3cccc([N+](=O)[O-])c3)cc2c1`, the AC50 by setting is: under setting [1], 8.91 µM [rising, partial curve, poor fit]; under setting [2], 14.1 µM [rising, partial curve, poor fit]. As for `COCC(=O)Nc1ccc(S(=O)(=O)NCCc2ccccc2)cc1`, under setting [2], the AC50 was 15.8 µM [rising, single point]. Regarding `Clc1ccccc1-c1cncnc1NCCN1CCOCC1`, the AC50 is 22.4 µM [falling, single point] under setting [1] and 15.8 µM [falling, single point] under setting [2].

For the molecule `S=c1[nH]nc(CSCc2ccc(Cl)cc2Cl)n1-c1ccccc1`, the AC50 under setting [2] is 12.6 µM [rising, single point]. On to `O=C1CS(=O)(=O)C2(C(=O)N(Cc3ccc(F)cc3)c3ccccc32)N1c1cccc(C(F)(F)F)c1` (stereo unspecified), for which, under setting [2], the AC50 is 8.91 µM [rising, partial curve].

`O=C1C=C(NNC(=O)c2cccnc2)CC(c2ccco2)C1` (stereo unspecified): under setting [1], the AC50 is 1.12 µM [rising, full curve, poor fit]. For `CCCC(=O)Nc1nnc(SCc2cc(=O)c3ccc(C)cc3[nH]2)s1`, the AC50 under setting [2] was 0.0251 µM [falling, full curve, poor fit]. With `O=[N+]([O-])c1ccc(Oc2ccc(S(=O)(=O)Nc3ccccc3)cc2)cc1`, the AC50 was 3.55 µM [rising, single point] under setting [1] and 20 µM [rising, single point] under setting [2]. As for `COc1cccc(C(=O)NCC(=O)OCc2cc(=O)n3nc(C)sc3n2)c1`, the AC50 under setting [2] was 0.891 µM [falling, full curve, poor fit]. For the molecule `Cc1ccc(NS(=O)(=O)c2cc(-c3n[nH]c(=O)c4ccccc34)ccc2C)cc1`, the AC50 under setting [1] was 5.01 µM [rising, partial curve, poor fit] and the AC50 under setting [2] is 10 µM [rising, partial curve]. As for `COC(=O)c1cc(N2C(=O)C3C(C2=O)C2(C)C=CC3(C)O2)ccc1Cl` (stereo unspecified), the AC50 under setting [1] was 35.5 µM [falling, single point].

Regarding `CC1Cc2ccccc2N1C(=S)NC(=O)C1(C)CC1(Cl)Cl` (stereo unspecified), the AC50 under setting [1] is 0.0447 µM [rising, full curve] and the concentration at half-maximal activity (AC50) under setting [2] is 0.631 µM [rising, full curve]. Regarding `O=C(NCCCn1ccnc1)C(=O)NCC1OCCCN1S(=O)(=O)c1ccc(F)cc1` (stereo unspecified), the AC50 by setting is: under setting [1], 0.0355 µM [falling, full curve]; under setting [2], 0.0316 µM [falling, full curve, poor fit].

As to `CC1CCN(S(=O)(=O)c2cccc(C(N)=O)c2)CC1`, the AC50 runs as follows: under setting [1], 2.51 µM [falling, partial curve, poor fit]; under setting [2], 0.0126 µM [falling, full curve, poor fit]. As to `CSc1nc2ccc(Br)cc2[nH]1`, under setting [1], the AC50 is 35.5 µM [falling, single point]. For `Cc1ccc(C2(CCN)CCOC(C(C)C)C2)cc1` (stereo unspecified), under setting [2], the AC50 was 14.1 µM [rising, partial curve, poor fit].

For `COc1cccc(N2CCN(C(=O)CSc3ccc(F)cc3)CC2)c1`, the AC50 under setting [2] is 5.62 µM [falling, single point]. For the molecule `CCOCCCNc1nc2c(C)cccn2c(=O)c1/C=C1\SC(=S)N(C(C)CC)C1=O` (stereo unspecified), the AC50 under setting [2] was 5.62 µM [rising, single point]. The same measure, in the same setting: for `Cc1ccc(OCC(=O)Nc2ccc(C)c(S(=O)(=O)N3CCCCC3)c2)c([N+](=O)[O-])n1` the value was 17.8 µM [rising, single point]. Regarding `COc1ccc(/C=N/Nc2ccccn2)c(OC)c1OC`, the AC50 under setting [1] was 0.631 µM [falling, full curve, poor fit].

On to `Cc1ccsc1/C=C\C1=NCCCN1C`, for which the AC50 was 10 µM [falling, single point] under setting [1] and 14.1 µM [falling, single point] under setting [2].

Turning to `COc1cc(/C=N/NC(=O)CCN2CCN(Cc3ccccc3)CC2)cc(OC)c1OC`, the AC50 under setting [2] is 0.562 µM [rising, partial curve].

Turning to `O=S(=O)(NCc1cccs1)c1cccc(S(=O)(=O)N2CCCCC2)c1`, under setting [2], the AC50 was 10 µM [rising, partial curve]. Turning to `O=C(COc1ccc(Cl)cc1Cl)Nc1ccc2nc3n(c(=O)c2c1)CCCC3`, the half-maximal activity concentration (AC50) reads like this: under setting [1], 22.4 µM [rising, single point]; under setting [2], 35.5 µM [rising, single point]. With `CC1=Nc2ccccc2/C1=C\c1sc(Nc2ccc(C)cc2)nc1O`, the AC50 under setting [1] was 0.891 µM [rising, full curve] and the AC50 under setting [2] is 0.891 µM [rising, full curve]. Turning to `COc1ccc(-c2noc(N3CCC(C(=O)N4CCN(c5ccccn5)CC4)CC3)n2)cc1`, the AC50 reads like this: under setting [1], 0.00891 µM [rising, full curve, poor fit]; under setting [2], 3.16 µM [rising, full curve].
